Out of some 52,000 sequences screened, about 210 (0.4%) were called active.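 The calls were made as follows: active = gene whose silencing raises cell survival under the drug, median off-target-corrected z-score across its silencing RNAs 2 or more; inactive = the rest.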 The list shows a part of the results.
Experiment: Resistance to Poly (ADP-Ribose) Polymerase inhibitor: Gene Identification via Genome-wide siRNA Screen
Settings: mouse BRCA2 R2336H ES cells, olaparib, CellTiter-Glo viability; hits give high values
Procedure, shortened: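 Mouse BRCA2 R2336H ES cells were reverse-transfected with siRNA (20 nM final), treated at 48 h with 500 nM olaparib, and read by CellTiter-Glo after 72 h. Scores: MAD-based z per siRNA, median per gene, seed off-target correction.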

| Sequence | z-score |
| --- | --- |
| UGUGGAACCCAGCACUUUUTT against Olfr458 | inactive: -1.39 |
| GGGAAUUGAUCUAAUUGAATT against E2f5 | inactive: 2.28 |
| GGAACAUCACUAACAAGUCTT against Cacna1g | inactive: 0.592 |
| GGUAGAAAAUGAUACGUCUTT against Pdcd1lg2 | inactive: -0.0726 |
| GGUACCUAGGAUGCUCUCATT against AI661311 | inactive: -1.58 |
| GAUGUGGCACCCAAACAUCTT against Cdc34 | inactive: 0.443 |
| CGAGUGGCUACUUUCCACUTT against Olfr152 | inactive: -1.5 |
| GGUGCACUACACCACAAACTT against D5Ertd593e | inactive: -0.662 |
| GCCAAGCCAUCUCAUUAAATT against Wdr18 | inactive: 0.596 |
| GUUUUACAAAUUCCUCCAUTT against Olfr1447 | inactive: -1.41 |
| GGCUUUGUCUUGAAUGGCUTT against Emr1 | inactive: 2.5 |
| CCAGCAAGCAAGAUUCCUGTT against 2810409H07Rik | inactive: 0.479 |
| CCUCUCAACCACUGACUGATT against 2610029K21Rik | inactive: -2.26 |
| GCCAUGUUCUUUGCUCCCATT against Pigl | inactive: 0.229 |
| GGAAGUUAUAAAACAGAACTT against Inpp1 | inactive: 0.809 |
| GCGAGUGUAUCUCAACAGCTT against Pitpnc1 | inactive: 0.436 |
| GGAGUUUGUCAACUUCUUCTT against Mcoln3 | inactive: -0.586 |
| GCCGCACUGUAACUUCAUCTT against D830039M14Rik | inactive: -0.139 |
| GCAUGAUGUGGAGACAAGATT against 2310007F04Rik | inactive: 0.492 |
| GGAGAAUUACUCCUUUUUGTT against BC019367 | inactive: 0.112 |
| CCUGCGUUAAGUGAUAAAGTT against Blm | inactive: -0.234 |
| GGUUGAUGCCGUGAACUCUTT against Pdxk | inactive: 0.302 |

| Sequence | z-score |
| --- | --- |
| CGACUUGGAACUCACUGGUTT against LOC268885 | inactive: 1.44 |
| CCACCGUACUAAACUAUUCTT against Emilin1 | inactive: 1.21 |
| CCAUUAUGGGAGGAAGAUUTT against A330019N05Rik | inactive: 0.247 |
| GGUCCCAAGUCCCUAAGAUTT against A930021G21Rik | inactive: -1.81 |
| GCCUGGUAGUUAGUCAGAATT against Tieg3 | inactive: -0.554 |
| GGGAAAAUAUCAGCUCAAUTT against D930048N14Rik | inactive: -2.2 |
| GGUGGCCAAACAGGAAAAGTT against Fau | inactive: -2.49 |
| GGUGCUUACUGAUUUUUGUTT against 1810015M01Rik | inactive: -0.437 |
| GGAGCUUGAUUCAGGAUGGTT against Ttc3 | inactive: 0.555 |
| GGCAUGAAUAUGCAUUUAGTT against Arrdc3 | inactive: -1.53 |
| GGUACUAGAUAGGAAACACTT against BC006662 | inactive: -0.0265 |
| CGAUUUCAUCGAACACUUCTT against Ccnd1 | inactive: -0.412 |
| CCCUGAAACCUCGGUGUUUTT against AI662250 | inactive: -0.418 |
| GCCUUGUAUCGUCAUGUGATT against Card14 | inactive: 0.0924 |
| GGCUAUAAAAGGUACUGAGTT against Myocd | inactive: 0.462 |
| GGAGUCCUAGAACACACAGTT against Snap29 | inactive: -2.41 |
| GGACGUGUAGCUUGGAAUATT against Rnf26 | inactive: 0.289 |
| GCAACAGGUUCGUGUAACCTT against 2310039E09Rik | inactive: 0.149 |
| GGUAUUUCGGCAACUAUCUTT against 9630044M06 | inactive: 0.715 |
| GCGAAAAACGGUCACCUAUTT against Tom1l2 | inactive: -1.75 |
| GGAUGUAGCACUCAAACUUTT against Usp6nl | inactive: -0.175 |
| CGGCAUCUAAUCAGUUUAATT against Farp1 | inactive: 1.35 |

| Sequence | z-score |
| --- | --- |
| GCGACAGGACUUCAUUACUTT against Pit1 | inactive: -0.803 |
| CGUAAACAUAUAGGACUGGTT against Ssty1 | inactive: 0.5 |
| GCCAGUUUAAGUCUCUCCATT against 8430437G11Rik | inactive: -0.391 |
| GGACAUCGUGCAAUACGCATT against Vangl1 | inactive: 1.53 |
| CCAAACGUGCCUCUAAGUUTT against Vkorc1 | inactive: 1.17 |
| GCAAAUUUGCCAAGUCAAATT against AW060207 | inactive: 0.659 |
| GGCCAGCUAGAGUUAUAUGTT against A430097D04Rik | inactive: 0.723 |
| CCUUCACUAUAUUCAACUUTT against Olfr479 | inactive: -0.023 |
| GGAAACACUUGAACAAAGATT against Tph2 | inactive: -0.381 |
| CCACAACUAUGAGUCUAUUTT against Ech1 | inactive: 0.791 |
| GCACUUUGCCAGAUAUAACTT against Glipr1 | inactive: 0.528 |
| GGGAGUAGCUCUAUUCAGATT against 2610044O15Rik | inactive: 0.428 |
| CCAAUGAUAGACUUUAUACTT against Mass1 | inactive: 0.0768 |
| GCCUCUGUUCUGACCAUAGTT against Gm128 | inactive: 0.7 |
| GCCCAUGGGAUGUUCAACUTT against Nos1 | inactive: -1.42 |
| CCUCUGUUAUGGUAAUUCUTT against Olfr1323 | inactive: -1.11 |
| GCUAAGGCUUGGAAUGACATT against Maged1 | inactive: -1.85 |
| CGUGAAUGAGUCUAUACUGTT against Nola3 | inactive: -1.25 |
| GGAGCAAUUCAAAUUCAAATT against 2310065K24Rik | inactive: 1.63 |
| GGACAAUUAAGAUAGCCAUTT against FHOS2 | inactive: 0.599 |
| CCCAGGAACUAUGAGUUGUTT against Rnf31 | inactive: 0.441 |
| GCAGAGCUAACCUCAUUUGTT against Gmeb2 | inactive: -2.11 |

No new results follow: entries from further up.

| Sequence | z-score |
| --- | --- |
| CGAUUUCAUCGAACACUUCTT against Ccnd1 | inactive: -0.412 |
| CCCUGAAACCUCGGUGUUUTT against AI662250 | inactive: -0.418 |
| GCCUUGUAUCGUCAUGUGATT against Card14 | inactive: 0.0924 |
